In ChEMBL document CHEMBL5500392, “Functional and Structural Characterization of Clinical-Stage Janus Kinase 2 Inhibitors Identifies Determinants for Drug Selectivity” (J Med Chem, 2024):

What was measured:
[1] = biological target: T1, Tyrosine-protein kinase JAK3 (Homo sapiens, UniProt P52333); experiment: Inhibition of recombinant human JAK3 assessed as inhibition of substrate phosphorylation measured every 5 mins for 30 mins by LANCE Ultra kinase assay
T1 sequence (P52333 whole entry): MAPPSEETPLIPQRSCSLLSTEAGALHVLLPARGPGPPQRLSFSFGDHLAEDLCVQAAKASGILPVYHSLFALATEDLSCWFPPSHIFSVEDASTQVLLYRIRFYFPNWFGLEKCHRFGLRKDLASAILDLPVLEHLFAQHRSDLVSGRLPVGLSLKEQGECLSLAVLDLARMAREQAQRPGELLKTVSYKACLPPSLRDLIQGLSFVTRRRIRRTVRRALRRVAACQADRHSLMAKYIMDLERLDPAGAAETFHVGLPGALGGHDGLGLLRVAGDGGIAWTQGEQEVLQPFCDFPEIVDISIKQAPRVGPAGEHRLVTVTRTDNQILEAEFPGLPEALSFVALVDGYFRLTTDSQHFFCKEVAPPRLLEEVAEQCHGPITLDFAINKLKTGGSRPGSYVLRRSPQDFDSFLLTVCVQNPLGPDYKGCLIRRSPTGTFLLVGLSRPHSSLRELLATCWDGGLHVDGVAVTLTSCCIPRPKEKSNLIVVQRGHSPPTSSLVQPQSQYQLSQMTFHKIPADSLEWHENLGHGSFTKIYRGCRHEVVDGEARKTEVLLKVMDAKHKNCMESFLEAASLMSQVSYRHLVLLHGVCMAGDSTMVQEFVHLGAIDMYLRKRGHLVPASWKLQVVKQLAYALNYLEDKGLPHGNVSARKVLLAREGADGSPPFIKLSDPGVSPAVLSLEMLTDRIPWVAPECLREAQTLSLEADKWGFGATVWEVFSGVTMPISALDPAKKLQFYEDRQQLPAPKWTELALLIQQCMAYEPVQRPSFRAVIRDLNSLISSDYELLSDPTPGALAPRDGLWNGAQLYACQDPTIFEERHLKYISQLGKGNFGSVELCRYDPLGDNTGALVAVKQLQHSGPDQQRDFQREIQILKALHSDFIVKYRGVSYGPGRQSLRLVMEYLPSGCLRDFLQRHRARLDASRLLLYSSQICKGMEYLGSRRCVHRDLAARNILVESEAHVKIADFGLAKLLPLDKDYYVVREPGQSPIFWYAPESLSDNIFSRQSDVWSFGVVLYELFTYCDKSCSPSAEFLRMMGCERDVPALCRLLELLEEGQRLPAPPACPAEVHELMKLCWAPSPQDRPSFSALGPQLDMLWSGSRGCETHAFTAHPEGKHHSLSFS

[2] = biological target: T1, Tyrosine-protein kinase JAK3; experiment: Binding affinity to recombinant human JAK3 kinase domain by fluorescence polarization assay

Structure (SMILES): CCS(=O)(=O)N1CCN(c2ccc(Nc3ncc(C(N)=O)c(NC4CC4)n3)cc2)CC1 [CERDULATINIB]
- IC50 [1]: 25 nM
- Kd [2]: 3.3 nM
